# Results from PubChem BioAssay (EPA / NIEHS).
# The chains behind the UniProt entries cited, without tags or fusion partners. Where a name states a change or a piece, a line headed by the entry shows the natural chain unless it says otherwise.
# UniProt P10276, whole entry, looked up: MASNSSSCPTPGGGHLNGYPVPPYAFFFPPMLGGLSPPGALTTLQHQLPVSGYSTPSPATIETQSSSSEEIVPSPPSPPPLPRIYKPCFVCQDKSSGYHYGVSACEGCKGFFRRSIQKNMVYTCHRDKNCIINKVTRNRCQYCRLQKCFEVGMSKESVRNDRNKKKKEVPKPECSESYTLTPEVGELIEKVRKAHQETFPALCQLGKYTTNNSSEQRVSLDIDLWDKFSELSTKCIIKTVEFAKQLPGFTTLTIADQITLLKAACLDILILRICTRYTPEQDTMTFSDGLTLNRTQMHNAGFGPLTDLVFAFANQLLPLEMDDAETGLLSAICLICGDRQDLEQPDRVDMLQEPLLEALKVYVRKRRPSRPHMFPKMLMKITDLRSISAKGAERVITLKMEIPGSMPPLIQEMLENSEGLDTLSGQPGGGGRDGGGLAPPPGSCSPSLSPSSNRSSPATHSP
# UniProt O75469: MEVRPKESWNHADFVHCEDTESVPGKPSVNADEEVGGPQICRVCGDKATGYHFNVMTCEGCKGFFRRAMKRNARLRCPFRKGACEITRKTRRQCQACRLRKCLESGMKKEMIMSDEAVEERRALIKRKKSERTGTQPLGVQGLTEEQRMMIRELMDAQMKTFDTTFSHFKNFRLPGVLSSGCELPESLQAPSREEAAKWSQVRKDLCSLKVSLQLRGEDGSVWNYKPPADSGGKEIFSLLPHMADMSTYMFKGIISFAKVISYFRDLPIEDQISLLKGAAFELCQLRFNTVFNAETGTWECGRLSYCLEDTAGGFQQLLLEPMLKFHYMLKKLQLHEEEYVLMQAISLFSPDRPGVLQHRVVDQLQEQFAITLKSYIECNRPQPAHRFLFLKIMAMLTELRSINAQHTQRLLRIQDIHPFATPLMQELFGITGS
# UniProt P13631, whole entry, looked up: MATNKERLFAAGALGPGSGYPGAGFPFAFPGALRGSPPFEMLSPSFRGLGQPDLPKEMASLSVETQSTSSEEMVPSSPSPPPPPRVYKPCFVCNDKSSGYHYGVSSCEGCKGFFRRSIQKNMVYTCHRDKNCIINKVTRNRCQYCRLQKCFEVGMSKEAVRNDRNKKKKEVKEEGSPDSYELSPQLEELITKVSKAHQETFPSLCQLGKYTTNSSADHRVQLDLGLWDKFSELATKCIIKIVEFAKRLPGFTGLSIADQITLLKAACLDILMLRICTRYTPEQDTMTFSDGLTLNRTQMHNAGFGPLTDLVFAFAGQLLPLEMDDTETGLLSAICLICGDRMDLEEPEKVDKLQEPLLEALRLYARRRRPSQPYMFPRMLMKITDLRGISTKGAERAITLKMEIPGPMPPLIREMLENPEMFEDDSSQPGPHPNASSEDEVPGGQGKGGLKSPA
# UniProt Q92753: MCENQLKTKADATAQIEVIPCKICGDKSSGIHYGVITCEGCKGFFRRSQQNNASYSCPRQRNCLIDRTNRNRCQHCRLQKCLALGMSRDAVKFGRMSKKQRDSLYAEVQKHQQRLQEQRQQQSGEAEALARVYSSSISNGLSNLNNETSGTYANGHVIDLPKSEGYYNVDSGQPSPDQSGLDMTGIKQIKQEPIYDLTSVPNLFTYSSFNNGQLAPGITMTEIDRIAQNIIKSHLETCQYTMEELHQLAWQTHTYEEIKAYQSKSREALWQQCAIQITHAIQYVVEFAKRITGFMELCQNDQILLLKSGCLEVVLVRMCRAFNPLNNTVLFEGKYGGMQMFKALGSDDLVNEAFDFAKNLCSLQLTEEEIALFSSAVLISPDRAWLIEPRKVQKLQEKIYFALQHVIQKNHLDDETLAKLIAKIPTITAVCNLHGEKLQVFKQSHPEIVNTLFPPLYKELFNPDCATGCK
# UniProt P19793: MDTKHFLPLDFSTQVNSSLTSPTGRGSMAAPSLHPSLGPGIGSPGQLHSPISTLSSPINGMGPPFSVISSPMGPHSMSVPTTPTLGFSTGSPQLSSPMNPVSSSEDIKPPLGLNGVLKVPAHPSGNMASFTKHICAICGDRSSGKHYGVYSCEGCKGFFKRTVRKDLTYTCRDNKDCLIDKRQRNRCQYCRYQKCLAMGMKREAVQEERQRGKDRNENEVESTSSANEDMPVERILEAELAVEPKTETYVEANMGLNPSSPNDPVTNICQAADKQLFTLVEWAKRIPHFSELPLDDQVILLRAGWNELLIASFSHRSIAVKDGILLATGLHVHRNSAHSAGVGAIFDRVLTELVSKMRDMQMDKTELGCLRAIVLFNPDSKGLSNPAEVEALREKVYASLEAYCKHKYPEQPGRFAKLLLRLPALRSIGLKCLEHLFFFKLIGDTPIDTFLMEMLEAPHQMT
# UniProt P28702: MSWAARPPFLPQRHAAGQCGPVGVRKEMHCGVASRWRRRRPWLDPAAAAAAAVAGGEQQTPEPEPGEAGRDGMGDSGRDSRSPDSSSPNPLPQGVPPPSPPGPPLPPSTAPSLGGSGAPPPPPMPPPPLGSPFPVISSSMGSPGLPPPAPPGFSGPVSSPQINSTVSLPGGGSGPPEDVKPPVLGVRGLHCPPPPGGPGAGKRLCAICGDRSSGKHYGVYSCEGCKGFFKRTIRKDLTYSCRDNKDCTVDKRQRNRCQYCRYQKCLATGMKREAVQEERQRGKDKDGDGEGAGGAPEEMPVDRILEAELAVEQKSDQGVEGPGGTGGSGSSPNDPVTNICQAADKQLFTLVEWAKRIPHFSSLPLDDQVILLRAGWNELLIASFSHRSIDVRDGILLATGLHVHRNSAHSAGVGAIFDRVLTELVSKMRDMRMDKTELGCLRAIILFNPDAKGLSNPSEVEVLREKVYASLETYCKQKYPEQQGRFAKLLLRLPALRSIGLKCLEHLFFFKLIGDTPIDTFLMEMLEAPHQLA
# UniProt P51449: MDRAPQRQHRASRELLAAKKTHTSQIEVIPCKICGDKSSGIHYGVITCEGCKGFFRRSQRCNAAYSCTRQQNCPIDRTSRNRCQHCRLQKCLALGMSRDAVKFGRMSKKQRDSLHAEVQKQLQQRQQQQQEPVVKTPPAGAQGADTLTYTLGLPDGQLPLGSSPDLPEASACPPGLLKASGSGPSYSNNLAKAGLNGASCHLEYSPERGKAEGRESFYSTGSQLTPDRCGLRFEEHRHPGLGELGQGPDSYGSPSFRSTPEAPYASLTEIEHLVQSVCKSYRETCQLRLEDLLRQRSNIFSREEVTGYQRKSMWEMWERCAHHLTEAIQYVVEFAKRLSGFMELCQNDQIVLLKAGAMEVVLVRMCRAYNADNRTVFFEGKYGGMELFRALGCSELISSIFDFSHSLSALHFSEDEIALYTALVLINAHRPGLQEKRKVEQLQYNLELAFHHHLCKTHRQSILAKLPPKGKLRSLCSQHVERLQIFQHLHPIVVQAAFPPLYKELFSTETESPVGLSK
# UniProt P10827: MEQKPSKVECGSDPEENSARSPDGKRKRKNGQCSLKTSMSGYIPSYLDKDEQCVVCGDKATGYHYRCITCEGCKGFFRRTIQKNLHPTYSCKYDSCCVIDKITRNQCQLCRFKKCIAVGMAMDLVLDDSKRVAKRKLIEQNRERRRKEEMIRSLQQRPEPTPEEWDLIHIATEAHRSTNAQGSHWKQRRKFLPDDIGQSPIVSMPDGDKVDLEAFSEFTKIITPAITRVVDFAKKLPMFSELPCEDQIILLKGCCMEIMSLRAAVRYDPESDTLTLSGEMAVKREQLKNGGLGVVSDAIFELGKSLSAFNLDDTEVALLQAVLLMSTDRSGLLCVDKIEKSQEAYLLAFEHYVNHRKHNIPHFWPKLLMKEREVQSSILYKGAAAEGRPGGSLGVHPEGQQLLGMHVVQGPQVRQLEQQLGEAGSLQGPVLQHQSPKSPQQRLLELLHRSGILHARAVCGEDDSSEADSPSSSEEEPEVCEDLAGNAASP
# UniProt P11473: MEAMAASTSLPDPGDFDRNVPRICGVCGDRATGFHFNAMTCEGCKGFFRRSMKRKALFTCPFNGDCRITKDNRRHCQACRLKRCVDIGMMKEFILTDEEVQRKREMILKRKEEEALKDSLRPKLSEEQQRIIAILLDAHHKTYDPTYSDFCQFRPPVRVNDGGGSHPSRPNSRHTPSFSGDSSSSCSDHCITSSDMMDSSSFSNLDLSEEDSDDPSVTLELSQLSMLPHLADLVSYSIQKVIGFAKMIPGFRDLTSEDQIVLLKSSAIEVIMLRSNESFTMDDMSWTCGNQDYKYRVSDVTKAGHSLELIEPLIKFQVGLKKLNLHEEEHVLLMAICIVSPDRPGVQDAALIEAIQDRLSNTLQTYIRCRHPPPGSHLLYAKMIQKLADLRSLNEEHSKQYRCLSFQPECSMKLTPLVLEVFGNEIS
# UniProt P08684, whole entry, looked up: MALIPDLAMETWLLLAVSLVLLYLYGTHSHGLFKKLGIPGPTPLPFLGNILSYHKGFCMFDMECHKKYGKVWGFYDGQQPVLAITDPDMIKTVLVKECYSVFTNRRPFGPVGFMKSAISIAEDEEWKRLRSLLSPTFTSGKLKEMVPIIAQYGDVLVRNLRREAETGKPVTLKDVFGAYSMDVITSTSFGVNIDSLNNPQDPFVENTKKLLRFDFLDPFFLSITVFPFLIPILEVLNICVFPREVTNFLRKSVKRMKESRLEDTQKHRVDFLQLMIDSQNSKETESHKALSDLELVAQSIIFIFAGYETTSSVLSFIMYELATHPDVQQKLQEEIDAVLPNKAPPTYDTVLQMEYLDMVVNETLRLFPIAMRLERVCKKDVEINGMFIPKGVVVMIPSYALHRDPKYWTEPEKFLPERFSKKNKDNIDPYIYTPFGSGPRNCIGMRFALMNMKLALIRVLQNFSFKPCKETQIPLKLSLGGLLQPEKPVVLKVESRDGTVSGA
# UniProt P04798: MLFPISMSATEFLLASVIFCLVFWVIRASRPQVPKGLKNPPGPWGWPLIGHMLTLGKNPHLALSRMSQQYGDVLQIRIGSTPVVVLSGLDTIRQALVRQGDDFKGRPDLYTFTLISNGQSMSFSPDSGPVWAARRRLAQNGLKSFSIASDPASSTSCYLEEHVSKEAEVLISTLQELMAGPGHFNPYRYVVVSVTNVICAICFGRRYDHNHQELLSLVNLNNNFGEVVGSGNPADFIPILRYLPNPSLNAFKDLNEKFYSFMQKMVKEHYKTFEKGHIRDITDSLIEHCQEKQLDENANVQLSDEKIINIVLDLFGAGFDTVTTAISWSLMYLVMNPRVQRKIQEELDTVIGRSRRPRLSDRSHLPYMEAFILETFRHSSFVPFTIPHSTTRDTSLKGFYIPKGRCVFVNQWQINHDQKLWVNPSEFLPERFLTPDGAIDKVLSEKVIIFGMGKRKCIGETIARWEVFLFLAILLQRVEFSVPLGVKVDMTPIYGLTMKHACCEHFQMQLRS
# UniProt P11509: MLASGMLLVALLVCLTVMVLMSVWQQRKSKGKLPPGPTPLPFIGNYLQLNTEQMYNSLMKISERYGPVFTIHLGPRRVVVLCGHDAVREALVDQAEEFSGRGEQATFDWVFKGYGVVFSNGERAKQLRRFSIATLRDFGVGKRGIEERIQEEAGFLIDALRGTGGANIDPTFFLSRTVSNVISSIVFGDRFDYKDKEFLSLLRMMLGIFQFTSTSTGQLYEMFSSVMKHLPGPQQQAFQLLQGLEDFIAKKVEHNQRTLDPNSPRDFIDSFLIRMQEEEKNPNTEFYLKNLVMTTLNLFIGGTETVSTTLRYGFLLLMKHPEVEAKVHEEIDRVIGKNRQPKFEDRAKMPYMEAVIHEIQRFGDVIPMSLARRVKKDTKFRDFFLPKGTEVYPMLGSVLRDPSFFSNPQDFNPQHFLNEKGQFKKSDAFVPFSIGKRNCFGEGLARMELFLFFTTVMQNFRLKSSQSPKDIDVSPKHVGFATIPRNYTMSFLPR
# Inconclusive results, whose numbers are uncertain, are shown with a selection of clear calls. For some of these results: Where the call is inconclusive, the potency comes from a doubtful curve fit. The source made the active and inactive calls. The calls were made as follows: active = hit-call score of the fitted dose curve at least 0.9, where 1 is the maximum; inconclusive = response in the unintended direction; inactive = score below 0.9.
# How the values were obtained:
# [1] = biological target: Retinoic acid receptor alpha (Homo sapiens) (UniProt P10276); test: ATG_RARa_TRANS: Attagene TRANS-FACTORIAL HepG2 Assay for human Retinoic Acid Receptor alpha (RARa) (AID 2283005);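 as to AC50: potency for increased reporter signal meaning RARa activation over DMSO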
# Procedure, shortened: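 HepG2 cells transiently transfected with multiple reporter units expressing chimeric RARα-GAL4 fusion, with GAL4-UAS-driven reporters. After 24 h compound exposure, reporter mRNA induction quantified by RT-PCR and capillary electrophoresis with fluorescent labeling; gain-of-signal fitted relative to DMSO control.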
# [2] = biological target: Nuclear receptor subfamily 1 group I member 2 (Homo sapiens) (UniProt O75469); test: ATG_PXR_TRANS: Attagene TRANS-FACTORIAL HepG2 Assay for human Pregnane X Receptor (PXR) (AID 2283008)
# Procedure, shortened: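 Multiplexed TRANS reporter panel in HepG2; this component tracks PXR-Gal4-driven reporter mRNA after 24 h dosing, measured by RT-PCR with capillary electrophoresis fluorescence, fitted against DMSO.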
# [3] = biological target: human Retinoic Acid Receptor gamma (RARg), RARG (gene 5916) (UniProt P13631); test: ATG_RARg_TRANS: Attagene TRANS-FACTORIAL HepG2 Assay for human Retinoic Acid Receptor gamma (RARg) (AID 2283009);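 as to AC50: AC50 is for reporter induction above DMSO meaning RARg activation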
# Procedure, shortened: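 Gain-of-signal relative to DMSO is reported from fluorescent capillary electrophoresis of RT-PCR reporter products. These came from HepG2 cells expressing transfected RARg-GAL4 chimeras with UAS reporters, harvested 24 h after dosing.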
# [4] = biological target: human RAR-related Orphan Receptor beta (RORb), RORB (gene 6096) (UniProt Q92753); test: ATG_RORb_TRANS: Attagene TRANS-FACTORIAL HepG2 Assay for human RAR-related Orphan Receptor beta (RORb) (AID 2283010);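 as to AC50: potency for increased reporter mRNA meaning activation of RORb-Gal4 chimera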
# Procedure, shortened: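 Multiplexed transcription-factor reporter assay: HepG2 cells transiently carrying NR-Gal4/GAL4-UAS constructs, 24 h treatment, mRNA quantified by RT-PCR plus capillary electrophoresis fluorescence; activity scored as induction over DMSO.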
# [5] = biological target: Retinoic acid receptor RXR-alpha (Homo sapiens) (UniProt P19793); test: ATG_RXRa_TRANS: Attagene TRANS-FACTORIAL HepG2 Assay for human Retinoid X Receptor alpha (RXRa) (AID 2283012)
# Procedure, shortened: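 Chimeric NR-GAL4 trans-activation in HepG2, 24 h treatment; reporter transcripts quantified by fluorescence on capillary electrophoresis, analysed for upward change from DMSO.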
# [6] = biological target: human Retinoid X Receptor beta (RXRb), RXRB (gene 6257) (UniProt P28702); test: ATG_RXRb_TRANS: Attagene TRANS-FACTORIAL HepG2 Assay for human Retinoid X Receptor beta (RXRb) (AID 2283013)
# Procedure, shortened: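 After a 24 h incubation with test chemical, transfected HepG2 cells carrying NR-Gal4 fusions and GAL4-UAS reporter transcription units yield RNA whose reporter cDNA is FAM-labelled, HpaI-cut and sized by capillary electrophoresis; increases over DMSO are scored.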
# [7] = biological target: human RAR-related Orphan Receptor gamma (RORg), RORC (gene 6097) (UniProt P51449); test: ATG_RORg_TRANS: Attagene TRANS-FACTORIAL HepG2 Assay for human RAR-related Orphan Receptor gamma (RORg) (AID 2283011);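 as to AC50: potency for induction of reporter transcripts above DMSO so activators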
# Procedure, shortened: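 HepG2 cells transiently transfected with GAL4-UAS reporter units and chimeric RORg-Gal4 construct; after 24 h chemical exposure, reporter mRNA measured by RT-PCR with fluorescent capillary electrophoresis, gain of signal fitted against DMSO.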
# [8] = biological target: human Thyroid Receptor alpha (THRa1), THRA (gene 7067) (UniProt P10827); test: ATG_THRa1_TRANS: Attagene TRANS-FACTORIAL HepG2 Assay for human Thyroid Receptor alpha (THRa1) (AID 2283014)
# Procedure, shortened: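 HepG2 cells transiently transfected with chimeric NR-Gal4 and GAL4-UAS reporter units, dosed 24 h. Reporter mRNA quantified by RT-PCR, fluorescent labeling, HpaI digestion and capillary electrophoresis; gain-of-signal fit versus DMSO.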
# [9] = biological target: human Vitamin D Receptor (VDR), VDR (gene 7421) (UniProt P11473); test: ATG_VDR_TRANS: Attagene TRANS-FACTORIAL HepG2 Assay for human Vitamin D Receptor (VDR) (AID 2283022)
# Procedure, shortened: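 HepG2 cells were transiently transfected with GAL4-UAS reporter units and a chimeric VDR-Gal4 construct, then dosed for 24 hours. Reporter mRNA was quantified by RT-PCR, fluorescent labeling, HpaI digestion and capillary electrophoresis; gain of signal analysed vs DMSO.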
# [10] = biological target: Cytochrome P450 3A4 (Homo sapiens) (UniProt P08684); test: NVS_ADME_hCYP3A4: NovaScreen (NVS) CYP450-related Enzyme Activity (ADME) Assay for human CYP3A4 (AID 2283110)
# Procedure, shortened: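 Activity is derived from decreased fluorescence intensity relative to acetonitrile, measured 0.33 hour after dosing insect-cell-expressed CYP3A4 in a cell-free format. Screening used 10 uM in duplicate before concentration-response follow-up.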
# [11] = biological target: human CYP1A1, CYP1A1 (gene 1543) (UniProt P04798); test: NVS_ADME_hCYP1A1: NovaScreen (NVS) CYP450-related Enzyme Activity (ADME) Assay for human CYP1A1 (AID 2283100)
# Procedure, shortened: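 Recombinant CYP1A1 with a fluorogenic substrate, cell-free, read 1 h after dosing; acetonitrile as negative control. Single-concentration screen at 10 uM in duplicate, then concentration-response up to 20 uM for chemicals meeting ~30% inhibition threshold.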
# [12] = biological target: human CYP2A6, CYP2A6 (gene 1548) (UniProt P11509); test: NVS_ADME_hCYP2A6: NovaScreen (NVS) CYP450-related Enzyme Activity (ADME) Assay for human CYP2A6 (AID 2283099)
# Procedure, shortened: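 Recombinant human CYP2A6 expressed in insect cells, cell-free; fluorogenic substrate turnover read by fluorescence intensity 0.5 h after dosing. Primary screen 10 uM in duplicate, then concentration-response up to 20 uM; acetonitrile as negative control.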
compound,measurement,setting,value
C=CCOC(F)(C(F)(F)F)C(F)(F)F,AC50,[1],inconclusive: 269 µM
same,AC50,[2],inconclusive: 150 µM
same,AC50,[3],inconclusive: 150 µM
same,AC50,[4],inconclusive: 255 µM
same,AC50,[7],inconclusive: 150 µM
same,AC50,[6],inconclusive: 150 µM
C=C(C)CN(CC)c1c([N+](=O)[O-])cc(C(F)(F)F)cc1[N+](=O)[O-],AC50,[1],active: 30.2 µM
same,AC50,[2],active: 13.6 µM
same,outcome,[3],inactive
same,AC50,[4],inconclusive: 50 µM
same,outcome,[6],inactive
same,AC50,[8],inconclusive: 50 µM
same,AC50,[9],inconclusive: 90.7 µM
OCC(F)(F)OC(F)(F)C(F)(F)OC(F)(F)C(F)(F)OC(F)(F)CO,AC50,[1],inconclusive: 85.2 µM
same,outcome,[2],inactive
same,outcome,[3],inactive
same,AC50,[4],inconclusive: 24.4 µM
same,AC50,[7],inconclusive: 5.6 µM
same,AC50,[6],active: 17.4 µM
same,outcome,[8],inactive
CC(C)c1ccc(CO)cc1,AC50,[1],inconclusive: 0.368 µM
same,outcome,[2],inactive
same,AC50,[3],inconclusive: 2.48 µM
same,outcome,[4],inactive
same,AC50,[7],inconclusive: 100 µM
same,outcome,[6],inactive
O=S(=O)(C(Cl)(Cl)Cl)C(Cl)(Cl)Cl,AC50,[1],inconclusive: 11.1 µM
same,AC50,[2],inconclusive: 0.222 µM
same,AC50,[3],inconclusive: 0.00914 µM
same,AC50,[4],inconclusive: 11.1 µM
same,AC50,[6],active: 20 µM
same,AC50,[8],inconclusive: 11.1 µM
Cc1ccccc1OP(=O)(Oc1ccccc1)Oc1ccccc1,AC50,[1],inconclusive: 2.5 µM
same,AC50,[2],active: 0.736 µM
same,AC50,[3],inconclusive: 0.0823 µM
same,AC50,[4],inconclusive: 5.03 µM
same,AC50,[7],inconclusive: 3.3 µM
same,AC50,[6],inconclusive: 1.44 µM
ClCc1ccccc1Cl,AC50,[1],inconclusive: 148 µM
same,AC50,[2],inconclusive: 143 µM
same,AC50,[3],inconclusive: 27.5 µM
same,outcome,[4],inactive
same,AC50,[5],inconclusive: 35.5 µM
same,AC50,[6],inconclusive: 100 µM
same,AC50,[8],inconclusive: 100 µM
same,AC50,[9],inconclusive: 100 µM
same,AC50,[10],inconclusive: 0.0939 µM
CCNc1nc(Cl)nc(NC(C)(C)C)n1,outcome,[1],inactive
same,AC50,[2],active: 4.35 µM
same,outcome,[3],inactive
same,AC50,[4],inconclusive: 20.4 µM
same,outcome,[5],inactive
same,AC50,[6],active: 49.1 µM
same,AC50,[11],inconclusive: 10 µM
OCCOCCO,AC50,[1],inconclusive: 100 µM
same,AC50,[2],inconclusive: 100 µM
same,AC50,[3],inconclusive: 100 µM
same,AC50,[4],inconclusive: 100 µM
same,AC50,[8],inconclusive: 100 µM
same,AC50,[9],inconclusive: 0.00766 µM
O=[N+]([O-])C(Br)(CO)CO,AC50,[1],inconclusive: 100 µM
same,AC50,[2],inconclusive: 100 µM
same,outcome,[3],inactive
same,outcome,[4],inactive
same,outcome,[7],inactive
same,outcome,[8],inactive
same,outcome,[12],inactive
Cc1cc(SCc2sc(-c3ccc(C(F)(F)F)c(F)c3)nc2C)ccc1OCC(=O)O,AC50,[1],inconclusive: 43.7 µM
same,AC50,[2],active: 2.05 µM
same,AC50,[3],inconclusive: 42.7 µM
same,AC50,[4],inconclusive: 65.1 µM
same,AC50,[7],inconclusive: 20.1 µM
same,outcome,[8],inactive

# Copied from the results shown for reference:
compound,measurement,setting,value
O=[N+]([O-])C(Br)(CO)CO,outcome,[4],inactive
same,outcome,[7],inactive
same,outcome,[8],inactive
